PubChem BioAssay AID504847 (National Center for Advancing Translational Sciences (NCATS), 2011)
Values joined by “and” are separate entries in the source; they are usually repeats but may differ in a detail not shown here. Identical values can stand only once. The whole screen tested about 400,000 compounds, of which about 3,700 (0.93%) were called active. Inconclusive results, whose numbers are uncertain, are shown with a selection of clear calls. The call rests on the fitted dose curve; in most records, active means well fitted inhibition curve with a large enough effect; inconclusive means small, poorly fitted or top-dose-only effect, or another doubt; inactive means no such curve, though single readings can be large or run the other way. Potencies beside an inconclusive call are fits to weak or partial responses and may not hold up.

Protein sequences, listed by entry. Tags and fused reporters are not part of them.
UniProt P11473, whole entry, looked up: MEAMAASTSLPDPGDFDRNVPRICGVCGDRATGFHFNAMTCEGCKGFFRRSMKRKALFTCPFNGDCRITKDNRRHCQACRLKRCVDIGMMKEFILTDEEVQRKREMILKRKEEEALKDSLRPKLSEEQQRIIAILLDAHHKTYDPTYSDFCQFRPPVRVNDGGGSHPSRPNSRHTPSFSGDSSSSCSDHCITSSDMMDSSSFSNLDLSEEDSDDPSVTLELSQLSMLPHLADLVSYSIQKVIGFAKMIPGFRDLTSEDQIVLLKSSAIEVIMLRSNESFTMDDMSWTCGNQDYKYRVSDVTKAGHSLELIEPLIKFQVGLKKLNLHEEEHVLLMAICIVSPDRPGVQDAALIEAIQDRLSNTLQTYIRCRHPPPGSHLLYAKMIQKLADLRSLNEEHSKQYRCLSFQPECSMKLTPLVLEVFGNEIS

These molecules were tested against Vitamin D3 receptor (Homo sapiens) (UniProt P11473) (assay: Inhibitors of the vitamin D receptor (VDR): qHTS). Details: VDR-SRC2-3 peptide fluorescence polarization, 2 h; max response, negative = inhibition: active compounds read low.
Outline: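 Measured by FP: displacement of SRC2-3 coactivator peptide from VDR by library compounds, following a two-hour ambient incubation.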
On the % scale 0 is the no-effect control and ±100 the full control effect; potency means the concentration at half of the fitted maximal effect.

Which Potency does the source give for `NC(=O)c1cc(S(=O)(=O)N2CCc3ccccc3C2)cs1` here?
The Potency was inconclusive: 25.1 µM [inhibitor, single point].

Which max response, negative = inhibition does the source give for `Fc1cccc(/C=N/Nc2ccc(Cl)nn2)c1` here?
The max response, negative = inhibition was inactive: -8.76%.

With `COc1cc(NS(C)(=O)=O)ccc1Nc1c2ccccc2nc2ccccc12` as the molecule, how does the Potency read?
The Potency was inconclusive: 70.8 µM [inhibitor, single point].

How did the Potency turn out when `CCN(CC(=O)Nc1cc(Cl)ccc1C)C(=O)COc1cccc2c1OC(C)(C)C2` was run?
The Potency was inconclusive: 89.1 µM [inhibitor, single point].

How did the Potency turn out when `O=C(COc1ccc2c(c1)CCC2)N1CCc2ccccc21` was run?
The Potency was inconclusive: 39.8 µM [inhibitor, single point].

`COc1ccc(N(C(=O)c2snc(C(N)=O)c2N)C(C(=O)NCc2ccccc2)c2ccc(F)cc2)c(OC)c1` (configuration not stated) was tested. Which Potency did it give?
The Potency was inconclusive: 39.8 µM [inhibitor, single point].

`CC(=O)c1cccc(NC(=O)CC2S/C(=N/N=C/c3ccccc3)NC2=O)c1` (configuration not stated) was tested. Which max response, negative = inhibition did it give?
Its max response, negative = inhibition is inactive: -13.4%.

With `Cc1ccccc1CN(C)CC(=O)NC(C)CCc1ccccc1` (configuration not stated) as the molecule, how does the max response, negative = inhibition read?
Its max response, negative = inhibition is inactive: -2.97%.

`O=C(Cn1c(C(=O)c2ccccc2)nc2ccccc21)c1ccc(Cl)cc1` was tested. Which max response, negative = inhibition did it give?
Its max response, negative = inhibition is inactive: 5.78%.

`Cc1cccc(C(=O)N[C@H](C(=O)OCC(=O)NC(=O)c2cccn2C)C(C)C)c1` was tested. Which Potency did it give?
Its Potency is inconclusive: 17.8 µM [inhibitor, partial curve, poor fit].

Which max response, negative = inhibition does the source give for `CCCCOC(=O)C(C)Nc1n[nH]c(=S)[nH]c1=O` (configuration not stated) here?
Its max response, negative = inhibition is inactive: -15.2%.

How did the Potency turn out when `N#CC(C#N)=C1C=CC=CN1/C(=C\c1ccco1)C(=O)c1ccc(-c2ccccc2)cc1` was run?
Its Potency is inconclusive: 56.2 µM [inhibitor, partial curve, poor fit].

Which Potency does the source give for `COc1cc(C)c(NC(=S)Nc2cccc(Cl)c2)cc1OC` here?
Its Potency is inconclusive: 44.7 µM [inhibitor, partial curve, poor fit].

How did the Potency turn out when `O=C(O)c1ccc(S(=O)(=O)/N=C2\C=C(Nc3ccccc3F)C(=O)c3ccccc32)cc1` was run?
Its Potency is active: 31.6 µM.

Which Potency does the source give for `CN(C)c1ccc(/C=C2/C(=O)Nc3ccccc32)cc1` here?
The Potency was inconclusive: 89.1 µM [inhibitor, single point].

How did the max response, negative = inhibition turn out when `O=c1c2c3n(c(=S)nc2[nH]n1-c1ccccc1)CCCCC3` was run?
Its max response, negative = inhibition is inactive: -15.4%.

Which Potency does the source give for `Cc1nc2nc(SCC(=O)NCc3ccco3)nn2c(C)c1Cc1ccccc1` here?
The Potency was inconclusive: 79.4 µM [inhibitor, single point].

With `Oc1c(CN2CCOCC2)cc(CN2CCOCC2)c(O)c1O` as the molecule, how does the Potency read?
The Potency was active: 20 µM.

For `Clc1ccccc1-c1cc(NCCN2CCOCC2)ncn1`, which Potency is on record?
The Potency was inconclusive: 50.1 µM [inhibitor, partial curve].

Which max response, negative = inhibition does the source give for `CCC(=O)Nc1ccc(N2CCN(S(C)(=O)=O)CC2)cc1` here?
Its max response, negative = inhibition is inactive: 6.52%.

For `COc1cc(C(=O)Sc2ccc(Cl)cc2)cc(OC)c1OC`, which Potency is on record?
Its Potency is inconclusive: 56.2 µM [inhibitor, partial curve, poor fit].

`CCOc1ccccc1-c1c2cc(O)c(=O)cc-2oc2cc(O)c(O)cc12` was tested. Which Potency did it give?
Its Potency is inconclusive: 50.1 µM [inhibitor, partial curve, poor fit].

With `CCN1CCN(CC(=O)Nc2cc(C)on2)CC1` as the molecule, how does the max response, negative = inhibition read?
The max response, negative = inhibition was inactive: -8.34%.

`CCn1c(SCC(=O)NC(=O)NC(C)(C)C)nc2ccccc21` was tested. Which Potency did it give?
The Potency was inconclusive: 22.4 µM [inhibitor, single point].

For `CC1CC1C(=O)Nc1nc(-c2ccccn2)cs1` (configuration not stated), which Potency is on record?
The Potency was active: 79.4 µM.

Which Potency does the source give for `COc1ccccc1-c1cncnc1N(C)Cc1ccco1` here?
Its Potency is inconclusive: 50.1 µM [inhibitor, partial curve].

`C=C[C@@]1(C)CC(=O)[C@]2(O)[C@@]3(C)[C@H](O)CCC(C)(C)[C@@H]3[C@H](O)[C@H](OC(C)=O)[C@@]2(C)O1` was tested. Which max response, negative = inhibition did it give?
The max response, negative = inhibition was inactive: 10.3%.

How did the Potency turn out when `Cc1cc(=O)n2nc(-c3ccccc3)sc2c1C#N` was run?
Its Potency is inconclusive: 79.4 µM [inhibitor, partial curve].

`Cc1cccc(N=Nc2ccc(O)c3ncccc23)c1` was tested. Which max response, negative = inhibition did it give?
Its max response, negative = inhibition is inactive: -16%.

With `N=C(N)S/C=C\C(=O)O` as the molecule, how does the Potency read?
Its Potency is active: 8.91 µM and active: 28.2 µM.

With `O=C(c1ccc(Cl)nc1)c1cccs1` as the molecule, how does the Potency read?
The Potency was inconclusive: 89.1 µM [inhibitor, single point].

How did the max response, negative = inhibition turn out when `Cc1cc(OC(=O)c2ccccc2C(F)(F)F)c([N+](=O)[O-])c(=O)[nH]1` was run?
The max response, negative = inhibition was inactive: 8.33%.

With `C/C(=N\NC(=O)c1cccnc1)c1ccc(C)c([N+](=O)[O-])c1` as the molecule, how does the max response, negative = inhibition read?
The max response, negative = inhibition was inactive: 0.0917%.

With `CC(CC(=O)Nc1ncc([N+](=O)[O-])s1)c1ccccc1` (configuration not stated) as the molecule, how does the max response, negative = inhibition read?
Its max response, negative = inhibition is inactive: 9%.

How did the Potency turn out when `COc1ccc(NC(=S)NNC(=S)Nc2cccc(C(F)(F)F)c2)cc1` was run?
The Potency was inconclusive: 56.2 µM [inhibitor, partial curve, poor fit].

With `O=S(=O)(c1ccccc1)N1CCN(Cc2cccc(Cl)c2)CC1` as the molecule, how does the max response, negative = inhibition read?
Its max response, negative = inhibition is inactive: 3.34%.

Which max response, negative = inhibition does the source give for `CN(C)C(=O)N1CCN(C(=O)c2ccco2)CC1` here?
The max response, negative = inhibition was inactive: -3.6%.

`FC(F)(F)c1ccccc1-c1nccc(NCc2cccs2)n1` was tested. Which Potency did it give?
The Potency was inconclusive: 44.7 µM [inhibitor, partial curve].

With `CSC1=NC2(CCN(C(=O)NC3CCCCC3)CC2)N=C1c1ccc(C)c(C)c1` as the molecule, how does the max response, negative = inhibition read?
The max response, negative = inhibition was inactive: 5.47%.

For `COC(=O)CSc1nc2c(c(-c3ccco3)c1C#N)CCCC2`, which max response, negative = inhibition is on record?
The max response, negative = inhibition was inactive: -11.8%.

With `O=C1C(=O)c2c(C(=O)c3ccccc3)coc2-c2ccccc21` as the molecule, how does the Potency read?
The Potency was active: 3.16 µM.

How did the Potency turn out when `N#CC1=C(S)N=C(N)C(c2nc(-c3ccccc3)cs2)C12CCCCC2` (configuration not stated) was run?
The Potency was inconclusive: 50.1 µM [inhibitor, partial curve].

With `Cc1ccc2nc(N3CCC(C(=O)N4CCN(c5cccc(Cl)c5)CC4)CC3)[nH]c2c1` as the molecule, how does the max response, negative = inhibition read?
Its max response, negative = inhibition is inactive: 0.959%.

`CCN1CC2=C(OC(N)=C(C#N)C2c2cccs2)/C(=C\c2cccs2)C1` (configuration not stated) was tested. Which max response, negative = inhibition did it give?
The max response, negative = inhibition was inactive: 16.8%.

`CS(=O)(=O)c1cccc(C(=O)Nc2nnc(C3=COCCO3)o2)c1` was tested. Which Potency did it give?
Its Potency is inconclusive: 89.1 µM [inhibitor, single point].

Which Potency does the source give for `CC(C(=O)NC1C=CS(=O)(=O)C1)N1C(=O)/C(=C/c2cccc(Cl)c2)SC1=S` (configuration not stated) here?
Its Potency is inconclusive: 17.8 µM [inhibitor, full curve, poor fit].

How did the max response, negative = inhibition turn out when `Cc1ccc(CNCCNCCO)s1` was run?
The max response, negative = inhibition was inactive: -11%.

How did the Potency turn out when `CC1=CC(C)(C)N2C(=O)C(=O)c3cc(OC(=O)c4ccco4)cc1c32` was run?
Its Potency is inconclusive: 35.5 µM [inhibitor, single point].

Which Potency does the source give for `Cc1ccc(CN(C)C(=O)CCc2nc3sc4c(c3c(=O)[nH]2)CCCC4)o1` here?
Its Potency is inconclusive: 100 µM [inhibitor, single point].

Which Potency does the source give for `Fc1ccccc1-c1[nH]ncc1-c1nnnn1-c1ccccc1` here?
The Potency was inconclusive: 89.1 µM [inhibitor, partial curve, poor fit].

`O=C(CSC1=NCCS1)NC(c1ccccc1)c1ccccc1` was tested. Which Potency did it give?
The Potency was inconclusive: 56.2 µM [inhibitor, partial curve, poor fit].

How did the max response, negative = inhibition turn out when `Cc1cc2ccccc2n1-c1ccc(C(=O)N2CCC(C(=O)NCc3ccc(Cl)cc3)CC2)s1` was run?
The max response, negative = inhibition was inactive: 4.61%.

How did the max response, negative = inhibition turn out when `CCCc1cc(=O)[nH]c(Nc2ccc3c(c2)OCCO3)n1` was run?
The max response, negative = inhibition was inactive: 18.4%.

Which Potency does the source give for `S=C(NNc1ccc2ccccc2c1)NC1CCCCC1` here?
Its Potency is inconclusive: 5.01 µM [inhibitor, partial curve, poor fit].

With `CN1CCc2c1nc1ccccc1c2N` (tested in a mixture with another compound) as the molecule, how does the max response, negative = inhibition read?
Its max response, negative = inhibition is inactive: 0.448%.

For `CCOc1ccccc1/C=c1\sc2ncnn2c1=O`, which Potency is on record?
Its Potency is inconclusive: 50.1 µM [inhibitor, partial curve, poor fit].

How did the Potency turn out when `Cc1csc(NC(=O)CCn2c(=O)oc3ccccc32)n1` was run?
Its Potency is inconclusive: 89.1 µM [inhibitor, single point].

With `CCOc1ccc(C(=O)CCN2CCCCCC2)cc1` as the molecule, how does the Potency read?
Its Potency is active: 25.1 µM.

How did the Potency turn out when `Cc1ccc2nc(NC(=O)CSCC(=O)OCC(=O)c3ccc(Br)cc3)sc2c1` was run?
The Potency was inconclusive: 89.1 µM [inhibitor, single point].

For `COc1cccc(C(=O)CSc2nnc(CNS(=O)(=O)c3ccc(C)cc3)n2C)c1`, which Potency is on record?
Its Potency is inconclusive: 89.1 µM [inhibitor, single point].

Which max response, negative = inhibition does the source give for `CCc1ccc(-c2cn(-c3nc(C)cc(C)n3)c(=N)o2)cc1` here?
Its max response, negative = inhibition is inactive: -3.53%.

For `COC(=O)c1ccc(C)cc1C1CN=NC12Cc1cc(C)ccc1C2=O` (configuration not stated), which Potency is on record?
The Potency was inconclusive: 89.1 µM [inhibitor, single point].

For `CCC(C(=O)N1CCN(c2ccccc2)CC1)n1nc(C)c2sc3ccccc3c2c1=O` (configuration not stated), which max response, negative = inhibition is on record?
Its max response, negative = inhibition is inactive: 11.3%.

`CCNC(=O)CC1C(=O)N(c2ccc(F)cc2)C(=O)N1Cc1ccccn1` (configuration not stated) was tested. Which Potency did it give?
The Potency was inconclusive: 39.8 µM [inhibitor, full curve, poor fit].

Which Potency does the source give for `CCc1ccc2nc(N3C(=O)C(O)=C(C(=O)c4ccco4)C3c3cccs3)sc2c1` (configuration not stated) here?
The Potency was inconclusive: 89.1 µM [inhibitor, single point].

With `O=C1/C(=C/c2ccccc2)CN(C(=O)CCN2CCOCC2)C/C1=C\c1ccccc1` as the molecule, how does the Potency read?
The Potency was inconclusive: 50.1 µM [inhibitor, partial curve, poor fit].

How did the Potency turn out when `COc1ccc(S(=O)(=O)N2CCCCCC2)cc1C(=O)N1CCN(c2ccccc2O)CC1` was run?
Its Potency is inconclusive: 89.1 µM [inhibitor, single point].

`COc1cccc(NC(=O)CN(C)C(C)C(=O)N2CCCCC2)c1` (configuration not stated) was tested. Which max response, negative = inhibition did it give?
The max response, negative = inhibition was inactive: 20%.

For `CCn1c(SCC(N)=O)nc2sc3c(c2c1=O)CCN(C)C3`, which max response, negative = inhibition is on record?
The max response, negative = inhibition was inactive: 5.68%.

Which Potency does the source give for `COCCC(=O)N1CCC(Oc2ccc(C(=O)N3CCCCCC3)cc2)CC1` here?
The Potency was inconclusive: 35.5 µM [inhibitor, single point].

`CNc1nc(-c2ccc(Cl)cc2)cs1` was tested. Which Potency did it give?
Its Potency is inconclusive: 89.1 µM [inhibitor, partial curve, poor fit].
